No constants are given. Whether binding was seen depends on the method and setting. In cells and extracts the contact can be indirect. Some entries that bind do so weakly or less than the wild type. For some of these results: Tags and fused reporters may be left off the sequences shown. Blank lines part the entries; values can stand above or below the binder they belong to.
Columns and labels:
[1] = target: Tripartite motif 25 (TRIM25) (human (endogenous in gastric cancer cells)) (UniProt Q14258); test: co-IP; cells lysed in NP-40 lysis buffer with protease inhibitors; lysate with anti-NLRP12 or anti-TRIM25 antibody (4 μg/mL) or control IgG, protein A/G beads, 4 °C for 3 h; Western blot; with and without overexpression of NLRP12 or TRIM25
myc-TRIM25^WT (human) = myc-TRIM25^WT (human) (UniProt Q14258); test: co-IP; 293T cells cotransfected with TRIM25 or its truncations and flag-NLRP12 or His-HK2; IP and Western blot

Sequences of proteins named here, by UniProt entry; tags and fusion partners are left off.
UniProt Q14258: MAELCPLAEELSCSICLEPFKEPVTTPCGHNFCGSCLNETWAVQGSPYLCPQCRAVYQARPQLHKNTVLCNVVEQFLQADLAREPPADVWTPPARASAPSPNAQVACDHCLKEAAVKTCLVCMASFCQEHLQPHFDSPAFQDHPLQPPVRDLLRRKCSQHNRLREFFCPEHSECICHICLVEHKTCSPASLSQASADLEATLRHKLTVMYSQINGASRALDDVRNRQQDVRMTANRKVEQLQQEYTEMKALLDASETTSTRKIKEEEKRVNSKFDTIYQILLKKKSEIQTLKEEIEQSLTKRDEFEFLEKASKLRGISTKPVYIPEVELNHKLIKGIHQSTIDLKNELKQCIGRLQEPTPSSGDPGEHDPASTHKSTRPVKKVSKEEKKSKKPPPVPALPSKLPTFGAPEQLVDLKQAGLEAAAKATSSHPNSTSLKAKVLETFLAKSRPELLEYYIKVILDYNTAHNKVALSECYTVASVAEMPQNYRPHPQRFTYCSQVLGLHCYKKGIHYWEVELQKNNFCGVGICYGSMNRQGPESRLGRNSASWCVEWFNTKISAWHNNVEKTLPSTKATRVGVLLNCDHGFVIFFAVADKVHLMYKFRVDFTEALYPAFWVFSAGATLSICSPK

binding [1]: binds
B1: Hexokinase 2 (HK2) (enzyme, UniProt P52789 1-917)
chain: MIASHLLAYFFTELNHDQVQKVDQYLYHMRLSDETLLEISKRFRKEMEKGLGATTHPTAAVKMLPTFVRSTPDGTEHGEFLALDLGGTNFRVLWVKVTDNGLQKVEMENQIYAIPEDIMRGSGTQLFDHIAECLANFMDKLQIKDKKLPLGFTFSFPCHQTKLDESFLVSWTKGFKSSGVEGRDVVALIRKAIQRRGDFDIDIVAVVNDTVGTMMTCGYDDHNCEIGLIVGTGSNACYMEEMRHIDMVEGDEGRMCINMEWGAFGDDGSLNDIRTEFDQEIDMGSLNPGKQLFEKMISGMYMGELVRLILVKMAKEELLFGGKLSPELLNTGRFETKDISDIEGEKDGIRKAREVLMRLGLDPTQEDCVATHRICQIVSTRSASLCAATLAAVLQRIKENKGEERLRSTIGVDGSVYKKHPHFAKRLHKTVRRLVPGCDVRFLRSEDGSGKGAAMVTAVAYRLADQHRARQKTLEHLQLSHDQLLEVKRRMKVEMERGLSKETHASAPVKMLPTYVCATPDGTEKGDFLALDLGGTNFRVLLVRVRNGKWGGVEMHNKIYAIPQEVMHGTGDELFDHIVQCIADFLEYMGMKGVSLPLGFTFSFPCQQNSLDESILLKWTKGFKASGCEGEDVVTLLKEAIHRREEFDLDVVAVVNDTVGTMMTCGFEDPHCEVGLIVGTGSNACYMEEMRNVELVEGEEGRMCVNMEWGAFGDNGCLDDFRTEFDVAVDELSLNPGKQRFEKMISGMYLGEIVRNILIDFTKRGLLFRGRISERLKTRGIFETKFLSQIESDCLALLQVRAILQHLGLESTCDDSIIVKEVCTVVARRAAQLCGAGMAAVVDRIRENRGLDALKVTVGVDGTLYKLHPHFAKVMHETVKDLAPKCDVSFLQSEDGSGKGAALITAVACRIREAGQR

binding (myc-TRIM25^WT (human)): binds
B2: His-HK2 (enzyme, UniProt P52789 1-917)
chain: B1 chain

binding [1]: binds
B3: NLR family pyrin domain containing 12 (NLRP12) (protein, UniProt P59046 1-1061)
chain: MLRTAGRDGLCRLSTYLEELEAVELKKFKLYLGTATELGEGKIPWGSMEKAGPLEMAQLLITHFGPEEAWRLALSTFERINRKDLWERGQREDLVRDTPPGGPSSLGNQSTCLLEVSLVTPRKDPQETYRDYVRRKFRLMEDRNARLGECVNLSHRYTRLLLVKEHSNPMQVQQQLLDTGRGHARTVGHQASPIKIETLFEPDEERPEPPRTVVMQGAAGIGKSMLAHKVMLDWADGKLFQGRFDYLFYINCREMNQSATECSMQDLIFSCWPEPSAPLQELIRVPERLLFIIDGFDELKPSFHDPQGPWCLCWEEKRPTELLLNSLIRKKLLPELSLLITTRPTALEKLHRLLEHPRHVEILGFSEAERKEYFYKYFHNAEQAGQVFNYVRDNEPLFTMCFVPLVCWVVCTCLQQQLEGGGLLRQTSRTTTAVYMLYLLSLMQPKPGAPRLQPPPNQRGLCSLAADGLWNQKILFEEQDLRKHGLDGEDVSAFLNMNIFQKDINCERYYSFIHLSFQEFFAAMYYILDEGEGGAGPDQDVTRLLTEYAFSERSFLALTSRFLFGLLNEETRSHLEKSLCWKVSPHIKMDLLQWIQSKAQSDGSTLQQGSLEFFSCLYEIQEEEFIQQALSHFQVIVVSNIASKMEHMVSSFCLKRCRSAQVLHLYGATYSADGEDRARCSAGAHTLLVQLPERTVLLDAYSEHLAAALCTNPNLIELSLYRNALGSRGVKLLCQGLRHPNCKLQNLRLKRCRISSSACEDLSAALIANKNLTRMDLSGNGVGFPGMMLLCEGLRHPQCRLQMIQLRKCQLESGACQEMASVLGTNPHLVELDLTGNALEDLGLRLLCQGLRHPVCRLRTLWLKICRLTAAACDELASTLSVNQSLRELDLSLNELGDLGVLLLCEGLRHPTCKLQTLRLGICRLGSAACEGLSVVLQANHNLRELDLSFNDLGDWGLWLLAEGLQHPACRLQKLWLDSCGLTAKACENLYFTLGINQTLTDLYLTNNALGDTGVRLLCKRLSHPGCKLRVLWLFGMDLNKMTHSRLAALRVTKPYLDIGC

binding (myc-TRIM25^WT (human)): binds
B4: flag-NLRP12 (protein, UniProt P59046 1-1061)
chain: B3 chain

Reference: PMC12343871
